Three molecules from paper PMC7616709 (Molecular cell, 2024) can be followed below.

The chains behind the UniProt entries cited, without tags or fusion partners.
UniProt Q9NWU2: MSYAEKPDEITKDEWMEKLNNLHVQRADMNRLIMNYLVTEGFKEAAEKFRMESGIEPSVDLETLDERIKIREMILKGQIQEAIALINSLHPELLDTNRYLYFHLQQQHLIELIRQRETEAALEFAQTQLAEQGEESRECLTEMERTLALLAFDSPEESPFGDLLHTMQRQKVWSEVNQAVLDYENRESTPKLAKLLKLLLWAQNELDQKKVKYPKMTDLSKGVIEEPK
UniProt Q9H871: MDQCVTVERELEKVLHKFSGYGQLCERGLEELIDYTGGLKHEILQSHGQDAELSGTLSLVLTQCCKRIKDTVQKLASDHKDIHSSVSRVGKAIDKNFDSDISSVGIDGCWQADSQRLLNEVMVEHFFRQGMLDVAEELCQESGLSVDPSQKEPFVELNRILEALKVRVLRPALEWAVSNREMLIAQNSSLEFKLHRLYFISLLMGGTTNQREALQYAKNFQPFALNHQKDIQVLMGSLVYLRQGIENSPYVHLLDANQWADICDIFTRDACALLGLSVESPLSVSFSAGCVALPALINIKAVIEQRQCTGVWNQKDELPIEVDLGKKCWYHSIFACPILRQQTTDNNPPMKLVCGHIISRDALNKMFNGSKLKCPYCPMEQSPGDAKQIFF
UniProt Q8IUR7: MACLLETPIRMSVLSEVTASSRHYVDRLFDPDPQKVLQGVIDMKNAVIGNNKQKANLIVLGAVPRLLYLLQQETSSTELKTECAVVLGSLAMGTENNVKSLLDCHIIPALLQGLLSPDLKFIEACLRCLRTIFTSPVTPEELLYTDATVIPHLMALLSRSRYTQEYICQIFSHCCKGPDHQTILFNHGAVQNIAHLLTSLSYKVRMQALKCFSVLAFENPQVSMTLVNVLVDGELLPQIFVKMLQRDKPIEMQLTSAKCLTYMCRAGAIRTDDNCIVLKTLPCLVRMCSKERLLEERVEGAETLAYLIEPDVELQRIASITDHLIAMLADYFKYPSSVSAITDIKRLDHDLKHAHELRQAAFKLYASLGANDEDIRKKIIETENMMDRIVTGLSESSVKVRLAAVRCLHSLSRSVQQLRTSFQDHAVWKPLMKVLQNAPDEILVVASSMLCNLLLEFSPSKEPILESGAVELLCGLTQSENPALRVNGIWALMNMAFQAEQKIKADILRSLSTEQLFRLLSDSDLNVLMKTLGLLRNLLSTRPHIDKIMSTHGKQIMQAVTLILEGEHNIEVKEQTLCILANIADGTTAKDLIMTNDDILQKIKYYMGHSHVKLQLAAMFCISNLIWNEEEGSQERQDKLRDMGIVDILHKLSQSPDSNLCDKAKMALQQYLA

The chains are these.
B1: WDR26 (subunit of the recombinant WDR26-CTLH E3) (natural protein, human, UniProt Q9H7D7 1-661, looked up)
chain: MQANGAGGGGGGGGGGGGGGGGGGGQGQTPELACLSAQNGESSPSSSSSAGDLAHANGLLPSAPSAASNNSNSLNVNNGVPGGAAAASSATVAAASATTAASSSLATPELGSSLKKKKRLSQSDEDVIRLIGQHLNGLGLNQTVDLLMQESGCRLEHPSATKFRNHVMEGDWDKAENDLNELKPLVHSPHAIVVRGALEISQTLLGIIVRMKFLLLQQKYLEYLEDGKVLEALQVLRCELTPLKYNTERIHVLSGYLMCSHAEDLRAKAEWEGKGTASRSKLLDKLQTYLPPSVMLPPRRLQTLLRQAVELQRDRCLYHNTKLDNNLDSVSLLIDHVCSRRQFPCYTQQILTEHCNEVWFCKFSNDGTKLATGSKDTTVIIWQVDPDTHLLKLLKTLEGHAYGVSYIAWSPDDNYLVACGPDDCSELWLWNVQTGELRTKMSQSHEDSLTSVAWNPDGKRFVTGGQRGQFYQCDLDGNLLDSWEGVRVQCLWCLSDGKTVLASDTHQRIRGYNFEDLTDRNIVQEDHPIMSFTISKNGRLALLNVATQGVHLWDLQDRVLVRKYQGVTQGFYTIHSCFGGHNEDFIASGSEDHKVYIWHKRSELPIAELTGHTRTVNCVSWNPQIPSMMASASDDGTVRIWGPAPFIDHQNIEEECSSMDS
notes: WDR26, human, from human cDNA library (pFLN WDR26); The models 8QE8 and 8QBN exclude the CTLH-CRA^N domain of WDR26; also called WDR26 dimer

Results are given in words; binding and its absence hold for the method and conditions named. Some binding calls cover weakened binding; strength is not graded here.

For the assay, the target named is TWA1^2xS (TWA1 C-terminally tagged with 2xStrep) (human) (UniProt Q9NWU2). The assay is described as follows: co-purification (Strep-Tactin affinity chromatography, SEC); CTLH subunits co-expressed in High Five insect cells; complexes purified from lysates by the C-terminal 2xStrep tag of TWA1, then SEC on Superose 6; Coomassie-stained SDS-PAGE.
In the case of “RMND5A (subunit of the recombinant CTLH E3 complexes) (from UniProt Q9H871 1-391)”, the binding entry is listed as “binds”.
“ARMC8α (subunit of the recombinant CTLH E3 complexes) (from UniProt Q8IUR7 1-673)”: the binding result is “binds”.
On to B1, for which the binding entry was “binds”.
